Experimental findings from paper PMC5989226 (Nature Communications, 2018) are described below.

T1: YFP-AHG1 (in transgenic Arabidopsis YFP-AHG1ox plants) (Arabidopsis) (UniProt Q9FLI3)
T1 sequence: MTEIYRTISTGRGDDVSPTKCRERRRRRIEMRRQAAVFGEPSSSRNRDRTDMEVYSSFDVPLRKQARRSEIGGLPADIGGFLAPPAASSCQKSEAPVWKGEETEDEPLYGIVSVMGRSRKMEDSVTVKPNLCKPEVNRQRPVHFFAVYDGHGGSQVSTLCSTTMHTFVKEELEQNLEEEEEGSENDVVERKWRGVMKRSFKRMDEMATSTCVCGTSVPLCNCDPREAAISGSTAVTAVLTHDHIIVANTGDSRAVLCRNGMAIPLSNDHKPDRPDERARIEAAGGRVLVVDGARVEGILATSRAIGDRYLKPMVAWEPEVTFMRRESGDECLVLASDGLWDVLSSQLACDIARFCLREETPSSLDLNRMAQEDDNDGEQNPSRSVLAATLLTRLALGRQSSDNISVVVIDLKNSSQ

B1: FVE/MSI4, endogenous (protein, UniProt O22607 1-507)
chain: MESDEAAAVSPQATTPSGGTGASGPKKRGRKPKTKEDSQTPSSQQQSDVKMKESGKKTQQSPSVDEKYSQWKGLVPILYDWLANHNLVWPSLSCRWGPQLEQATYKNRQRLYLSEQTDGSVPNTLVIANCEVVKPRVAAAEHISQFNEEARSPFVKKYKTIIHPGEVNRIRELPQNSKIVATHTDSPDVLIWDVETQPNRHAVLGAANSRPDLILTGHQDNAEFALAMCPTEPFVLSGGKDKSVVLWSIQDHITTIGTDSKSSGSIIKQTGEGTDKNESPTVGPRGVYHGHEDTVEDVAFSPTSAQEFCSVGDDSCLILWDARTGTNPVTKVEKAHDADLHCVDWNPHDDNLILTGSADNTVRLFDRRKLTANGVGSPIYKFEGHKAAVLCVQWSPDKSSVFGSSAEDGLLNIWDYDRVSKKSDRAAKSPAGLFFQHAGHRDKVVDFHWNASDPWTIVSVSDDCETTGGGGTLQIWRMSDLIYRPEEEVVAELEKFKSHVMTCASKP
B2: DELAY OF …ON1 (DOG1), endogenous (protein, UniProt A0SVK0 1-291)
chain: MGSSSKNIEQAQDSYLEWMSLQSQRIPELKQLLAQRRSHGDEDNDNKLRKLTGKIIGDFKNYAAKRADLAHRCSSNYYAPTWNSPLENALIWMGGCRPSSFFRLVYALCGSQTEIRVTQFLRNIDGYESSGGGGGASLSDLSAEQLAKINVLHVKIIDEEEKMTKKVSSLQEDAADIPIATVAYEMENVGEPNVVVDQALDKQEEAMARLLVEADNLRVDTLAKILGILSPVQGADFLLAGKKLHLSMHEWGTMRDRRRRDCMVDTEVIFDACTTVNSGPRPTETTNNERN
B3: TOPLESS (TPL), endogenous (protein, UniProt Q94AI7 1-1131)
chain: MSSLSRELVFLILQFLDEEKFKETVHKLEQESGFFFNMKYFEDEVHNGNWDEVEKYLSGFTKVDDNRYSMKIFFEIRKQKYLEALDKHDRPKAVDILVKDLKVFSTFNEELFKEITQLLTLENFRENEQLSKYGDTKSARAIMLVELKKLIEANPLFRDKLQFPTLRNSRLRTLINQSLNWQHQLCKNPRPNPDIKTLFVDHSCGPPNGARAPSPVNNPLLGGIPKAGGFPPLGAHGPFQPTASPVPTPLAGWMSSPSSVPHPAVSAGAIALGGPSIPAALKHPRTPPTNASLDYPSADSEHVSKRTRPMGISDEVNLGVNMLPMSFSGQAHGHSPAFKAPDDLPKTVARTLSQGSSPMSMDFHPIKQTLLLVGTNVGDIGLWEVGSRERLVQKTFKVWDLSKCSMPLQAALVKEPVVSVNRVIWSPDGSLFGVAYSRHIVQLYSYHGGEDMRQHLEIDAHVGGVNDISFSTPNKQLCVITCGDDKTIKVWDAATGVKRHTFEGHEAPVYSVCPHYKENIQFIFSTALDGKIKAWLYDNMGSRVDYDAPGRWCTTMAYSADGTRLFSCGTSKDGESFIVEWNESEGAVKRTYQGFHKRSLGVVQFDTTKNRYLAAGDDFSIKFWDMDAVQLLTAIDGDGGLQASPRIRFNKEGSLLAVSGNENVIKIMANSDGLRLLHTFENISSESSKPAINSIAAAAAAAATSAGHADRSANVVSIQGMNGDSRNMVDVKPVITEESNDKSKIWKLTEVSEPSQCRSLRLPENLRVAKISRLIFTNSGNAILALASNAIHLLWKWQRNERNATGKATASLPPQQWQPASGILMTNDVAETNPEEAVPCFALSKNDSYVMSASGGKISLFNMMTFKTMATFMPPPPAATFLAFHPQDNNIIAIGMDDSTIQIYNVRVDEVKSKLKGHSKRITGLAFSNVLNVLVSSGADAQLCVWNTDGWEKQRSKVLPLPQGRPNSAPSDTRVQFHQDQAHFLVVHETQLAIYETTKLECMKQWAVRESLAPITHATFSCDSQLVYASFMDATVCVFSSANLRLRCRVNPSAYLPASLSNSNVHPLVIAAHPQEPNMFAVGLSDGGVHIFEPLESEGKWGVAPPAENGSASGAPTAPSVGASASDQPQR
B4: ABI FIVE BINDING PROTEIN 2 (AFP2), endogenous (protein, UniProt Q9LMX5 1-348)
chain: MGEASRQQRAWNREMTVTTNLSLDIDKYPRDLLRGFMSENGGGRVFHGGETNCDDESTIELNLGLSLGGRFGVDKTPRKLKRSSSVLDTVPFNDSTVAEPENYTVGLERTTSLPAEMEEEWRKRKEMQSLRRMEAKRRRCEKQSFRVGNSDDQTVSFENERWVTASKSGFLQRHLVSSNRQVCGVDSDGGGATGGGSSSSLSELDNKNQQGSSNSCNDERSPKIVAGCSSNSGSQGTERPSVTRANKVNENENEKRVRSEDSVDRKGKGMATSTGLVDMPCVFTKGDGPNGRRVDGILYKYGKGEEVRIMCICHGSFLTPAEFVKHGGGGDVDRPLRHIVVNTSSSTF

No constants are given. Whether binding was seen depends on the method and setting. In cells and extracts the contact can be indirect. Here binding means that the protein was enriched with, or labelled near, the bait; the list need not be complete. Where a sequence is shown, tags or fusion partners need not be part of it.

The target in this assay is T1, YFP-AHG1 (in transgenic Arabidopsis YFP-AHG1ox plants) (Arabidopsis). Nature of the assay: affinity purification with mass spectrometry; whole-protein extracts of 3-week-old YFP-AHG1ox (control YFPox) Arabidopsis plants, with or without 100 μM ABA, on an anti-GFP affinity column; eluted at pH 3.0; LC-MS/MS of three independent samples.
On to B1, for which the binding result is “binds”.
With B2, the binding entry is recorded as “binds”.
As to B3, the binding result is given as “binds”.
In the case of B4, the binding entry is reported as “binds”.
